Experimental data: publication PMC11432330, “Novel Drug-like HsrA Inhibitors Exhibit Potent Narrow-Spectrum Antimicrobial Activities against Helicobacter pylori” (International Journal of Molecular Sciences, 2024)
This continues a long series; more values of the same kind are listed elsewhere.

Tested on: H. pylori 26695
Experiment: In vivo inhibition of HsrA: RNA-Seq transcriptomic analysis of exposed cells
Format: cell-based, Helicobacter pylori
Description: Bacterial growth from three blood agar plates of H. pylori ATCC 700392 (aka 26695) incubated for 48 h at 37 °C under microaerobic conditions was aseptically resuspended in BHI + FBS and adjusted to 10^7 CFU/mL. BHI broth cultures were incubated microaerobically at 37 °C for 24 h. […] At this time, bacterial growth was stopped by adding 1.5 mL ice-cold RNA stop solution (95% absolute ethanol, 5% acid-buffered phenol) and subsequently incubated on ice. Control samples were exposed to the same amount of DMSO instead of the inhibitor. Helicobacter cells from all samples were harvested by centrifugation (4000 rpm at 4 °C for 10 min), then the pellets were quickly frozen by immersion in liquid nitrogen and stored at −80 °C.
RNA-Seq analysis was performed by GENEWIZ (Azenta Life Sciences, Leipzig, Germany). Frozen cell pellets from two biological replicates of each treatment condition were properly submitted to GENEWIZ in dry ice. RNA-Seq libraries were prepared according to standard protocols via rRNA depletion, RNA fragmentation and random priming, reverse transcription, 5’-phosphorylation and dA-tailing of cDNAs, adaptor ligation, and PCR enrichment. Once the quality of each library was confirmed, they were sequenced on an Illumina NovaSeq 6000 (Illumina, San Diego, CA, USA) with 150-bp paired-ends. Raw sequence reads were filtered to remove possible adapter sequences and nucleotides with poor quality using Trimmomatic v.0.36 [105]. The trimmed reads were subsequently mapped to the H. pylori strain 26695 reference genome NC_000915.1 available on NCBI, by using the Bowtie2 aligner v.2.2.6 [106]. Unique gene hit counts were calculated by using featureCounts from the Subread package v.1.5.2. Only unique reads that fell within the gene regions were counted. Using DESeq2 [108], a comparison of the gene expression between the control and treated groups of samples was performed. The Wald test was used to generate p-values and log2 fold changes. Genes with an adjusted p-value < 0.05 and absolute log2 fold change >1 were considered as differentially expressed genes (DEGs) for each comparison. The RNA-Seq data generated in this study have been deposited in ArrayExpress with the accession number E-MTAB-14255.

SMILES: NC(=NOC(=O)Nc1ccc(Cl)cc1)c1csc([N+](=O)[O-])c1 [Ligand V, N′-{[(4-chloroanilino)carbonyl]}oxy-5-nitrothiophene-3-carboximidamide]
- log2 Fold Change (gene maf, exposed to lethal concentrations vs control): 1.639
- log2 Fold Change (gene metN, exposed to lethal concentrations vs control): 0.020
- log2 Fold Change (gene miaA, exposed to lethal concentrations vs control): -0.634
- log2 Fold Change (gene minE, exposed to lethal concentrations of V vs control): 0.969
- log2 Fold Change (gene moaA, exposed to lethal concentrations vs control): -0.107
- log2 Fold Change (gene mod, exposed to lethal concentrations vs control): 0.088
- log2 Fold Change (gene mogA, exposed to lethal concentrations vs control): -0.063
- log2 Fold Change (gene murC, exposed to lethal concentrations vs control): -0.837
- log2 Fold Change (gene murE, exposed to lethal concentrations vs control): -0.055
- log2 Fold Change (gene ndk, exposed to lethal concentrations vs control): 0.013
- log2 Fold Change (gene nhaA, exposed to lethal concentrations vs control): -0.086
- log2 Fold Change (gene nusG, exposed to lethal concentration of V vs control): -1.235
- log2 Fold Change (gene obgE, exposed to lethal concentrations of V vs control): 0.741
- log2 Fold Change (gene omp16, exposed to lethal concentrations vs control): -0.043
- log2 Fold Change (gene omp17, exposed to lethal concentration of V vs control): -1.702
- log2 Fold Change (gene oorA, exposed to lethal concentrations vs control): 0.119
- log2 Fold Change (gene oorB, exposed to lethal concentrations of V vs control): 0.608
- log2 Fold Change (gene oorD, exposed to lethal concentration of V vs control): -1.607
- log2 Fold Change (gene pcm, exposed to lethal concentrations vs control): 0.044
- log2 Fold Change (gene pdxA, exposed to lethal concentrations of V vs control): 0.660
- log2 Fold Change (gene pgi, exposed to lethal concentrations vs control): 1.423
- log2 Fold Change (gene pgk, exposed to lethal concentrations vs control): 1.084
- log2 Fold Change (gene porC, exposed to lethal concentrations vs control): -0.109
- log2 Fold Change (gene prfA, exposed to lethal concentration of V vs control): -2.614
- log2 Fold Change (gene prmA, exposed to lethal concentration of V vs control): -1.071
- log2 Fold Change (gene pyrB, exposed to lethal concentrations of V vs control): 0.732
- log2 Fold Change (gene pyrE, exposed to lethal concentrations vs control): -0.103
- log2 Fold Change (gene pyrG, exposed to lethal concentrations of V vs control): 0.887
- log2 Fold Change (gene queA, exposed to lethal concentrations vs control): -0.686
- log2 Fold Change (gene recR, exposed to lethal concentrations vs control): -0.107
- log2 Fold Change (gene rho, exposed to lethal concentration of V vs control): -1.178
- log2 Fold Change (gene ribA, exposed to lethal concentrations vs control): -0.706
- log2 Fold Change (gene ribC, exposed to lethal concentrations vs control): 0.034
- log2 Fold Change (gene ribH, exposed to lethal concentrations vs control): -0.107
- log2 Fold Change (gene rimM, exposed to lethal concentration of V vs control): -2.091
- log2 Fold Change (gene rnhB, exposed to lethal concentrations of V vs control): 0.784
- log2 Fold Change (gene rplA, exposed to lethal concentrations vs control): -0.831
- log2 Fold Change (gene rplC, exposed to lethal concentration of V vs control): -1.139
- log2 Fold Change (gene rplI, exposed to lethal concentrations vs control): -0.646
- log2 Fold Change (gene rplJ, exposed to lethal concentration of V vs control): -1.559
- log2 Fold Change (gene rplK, exposed to lethal concentration of V vs control): -1.051
- log2 Fold Change (gene rplL, exposed to lethal concentration of V vs control): -0.909
- log2 Fold Change (gene rplM, exposed to lethal concentration of V vs control): -1.617
- log2 Fold Change (gene rplN, exposed to lethal concentration of V vs control): -1.008
- log2 Fold Change (gene rplO, exposed to lethal concentrations vs control): -0.775
- log2 Fold Change (gene rplR, exposed to lethal concentration of V vs control): -1.415
- log2 Fold Change (gene rplS, exposed to lethal concentration of V vs control): -1.647
- log2 Fold Change (gene rplT, exposed to lethal concentration of V vs control): -2.027
- log2 Fold Change (gene rplU, exposed to lethal concentration of V vs control): -3.119
- log2 Fold Change (gene rplV, exposed to lethal concentrations vs control): -0.771
- log2 Fold Change (gene rpmA, exposed to lethal concentration of V vs control): -2.557
- log2 Fold Change (gene rpmB, exposed to lethal concentration of V vs control): -1.954
- log2 Fold Change (gene rpmC, exposed to lethal concentration of V vs control): -1.167
- log2 Fold Change (gene rpmE, exposed to lethal concentration of V vs control): -1.306
- log2 Fold Change (gene rpmF, exposed to lethal concentration of V vs control): -2.178
- log2 Fold Change (gene rpmG, exposed to lethal concentration of V vs control): -0.924
- log2 Fold Change (gene rpmH, exposed to lethal concentration of V vs control): -1.882
- log2 Fold Change (gene rpmI, exposed to lethal concentration of V vs control): -2.800
- log2 Fold Change (gene rpmJ, exposed to lethal concentration of V vs control): -2.194
- log2 Fold Change (gene rpsA, exposed to lethal concentration of V vs control): -1.293
- log2 Fold Change (gene rpsE, exposed to lethal concentration of V vs control): -1.306
- log2 Fold Change (gene rpsF, exposed to lethal concentrations vs control): -0.701
- log2 Fold Change (gene rpsJ, exposed to lethal concentration of V vs control): -2.618
- log2 Fold Change (gene rpsL, exposed to lethal concentration of V vs control): -1.140
- log2 Fold Change (gene rpsM, exposed to lethal concentration of V vs control): -1.699
- log2 Fold Change (gene rpsN, exposed to lethal concentrations vs control): -0.046
- log2 Fold Change (gene rpsO, exposed to lethal concentration of V vs control): -2.030
- log2 Fold Change (gene rpsP, exposed to lethal concentration of V vs control): -1.591
- log2 Fold Change (gene rpsQ, exposed to lethal concentration of V vs control): -0.989
- log2 Fold Change (gene rpsR, exposed to lethal concentrations vs control): -0.800
- log2 Fold Change (gene rpsT, exposed to lethal concentration of V vs control): -1.339
- log2 Fold Change (gene rpsU, exposed to lethal concentration of V vs control): -1.225
- log2 Fold Change (gene ruvC, exposed to lethal concentrations of V vs control): 0.985
- log2 Fold Change (gene secA, exposed to lethal concentrations of V vs control): 0.724
- log2 Fold Change (gene secE, exposed to lethal concentration of V vs control): -1.643
- log2 Fold Change (gene secY, exposed to lethal concentrations vs control): -0.782
- log2 Fold Change (gene surE, exposed to lethal concentrations vs control): -0.634
- log2 Fold Change (gene tRNA-Ala-1, exposed to lethal concentrations vs control): 1.893
- log2 Fold Change (gene tRNA-Ala-2, exposed to lethal concentrations vs control): 1.157
- log2 Fold Change (gene tRNA-Arg-1, exposed to lethal concentrations vs control): 1.443
- log2 Fold Change (gene tRNA-Arg-2, exposed to lethal concentrations of V vs control): 0.810
- log2 Fold Change (gene tRNA-Arg-3, exposed to lethal concentrations vs control): 1.517
- log2 Fold Change (gene tRNA-Asn-1, exposed to lethal concentrations vs control): 1.418
- log2 Fold Change (gene tRNA-Asp-1, exposed to lethal concentrations vs control): 1.454
- log2 Fold Change (gene tRNA-Cys-1, exposed to lethal concentrations vs control): 0.112
- log2 Fold Change (gene tRNA-Glu-1, exposed to lethal concentrations vs control): 1.436
- log2 Fold Change (gene tRNA-Gly-1, exposed to lethal concentrations of V vs control): 0.945
- log2 Fold Change (gene tRNA-Gly-2, exposed to lethal concentrations vs control): 1.265
- log2 Fold Change (gene tRNA-His-1, exposed to lethal concentrations vs control): 1.083
- log2 Fold Change (gene tRNA-Ile-1, exposed to lethal concentrations vs control): -0.803
- log2 Fold Change (gene tRNA-Leu-2, exposed to lethal concentrations vs control): 1.821
- log2 Fold Change (gene tRNA-Leu-3, exposed to lethal concentrations vs control): 1.654
- log2 Fold Change (gene tRNA-Met-1, exposed to lethal concentrations vs control): 2.141
- log2 Fold Change (gene tRNA-Met-2, exposed to lethal concentrations vs control): 1.113
- log2 Fold Change (gene tRNA-Met-3, exposed to lethal concentrations vs control): 1.875
- log2 Fold Change (gene tRNA-Phe-1, exposed to lethal concentrations of V vs control): 0.884
- log2 Fold Change (gene tRNA-Pro-1, exposed to lethal concentrations vs control): 1.415
- log2 Fold Change (gene tRNA-Pro-2, exposed to lethal concentrations vs control): -0.113
- log2 Fold Change (gene tRNA-Thr-2, exposed to lethal concentrations of V vs control): 0.891
- log2 Fold Change (gene tRNA-Tyr-1, exposed to lethal concentrations of V vs control): 0.552
- log2 Fold Change (gene tRNA-Val-2, exposed to lethal concentrations vs control): -0.623
- log2 Fold Change (gene thiE, exposed to lethal concentrations of V vs control): 0.732
- log2 Fold Change (gene thrS, exposed to lethal concentrations vs control): -0.703
- log2 Fold Change (gene thyX, exposed to lethal concentration of V vs control): -0.995
- log2 Fold Change (gene tig, exposed to lethal concentration of V vs control): -1.315
- log2 Fold Change (gene tolB, exposed to lethal concentration of V vs control): -0.933
- log2 Fold Change (gene tpiA, exposed to lethal concentrations vs control): -0.707
- log2 Fold Change (gene trmB, exposed to lethal concentrations vs control): -0.047
- log2 Fold Change (gene trmD, exposed to lethal concentration of V vs control): -1.325
- log2 Fold Change (gene trmE, exposed to lethal concentration of V vs control): -1.188
- log2 Fold Change (gene trpA, exposed to lethal concentrations vs control): -0.690
- log2 Fold Change (gene trpC, exposed to lethal concentrations of V vs control): 0.568
- log2 Fold Change (gene truA, exposed to lethal concentrations vs control): -0.677
- log2 Fold Change (gene tuf, exposed to lethal concentrations of V vs control): 0.500
- log2 Fold Change (gene ubiE, exposed to lethal concentrations vs control): -0.139
- log2 Fold Change (gene ureB, exposed to lethal concentrations of V vs control): 0.950
- log2 Fold Change (gene ureE, exposed to lethal concentrations vs control): -0.706
- log2 Fold Change (gene uvrC, exposed to lethal concentrations vs control): -0.752
- log2 Fold Change (gene valS, exposed to lethal concentrations of V vs control): 0.999
- log2 Fold Change (gene ychF, exposed to lethal concentrations vs control): 1.854
